Percent effect of library compounds

The chains behind the UniProt entries cited, without tags or fusion partners.
UniProt I6X8D2, whole entry: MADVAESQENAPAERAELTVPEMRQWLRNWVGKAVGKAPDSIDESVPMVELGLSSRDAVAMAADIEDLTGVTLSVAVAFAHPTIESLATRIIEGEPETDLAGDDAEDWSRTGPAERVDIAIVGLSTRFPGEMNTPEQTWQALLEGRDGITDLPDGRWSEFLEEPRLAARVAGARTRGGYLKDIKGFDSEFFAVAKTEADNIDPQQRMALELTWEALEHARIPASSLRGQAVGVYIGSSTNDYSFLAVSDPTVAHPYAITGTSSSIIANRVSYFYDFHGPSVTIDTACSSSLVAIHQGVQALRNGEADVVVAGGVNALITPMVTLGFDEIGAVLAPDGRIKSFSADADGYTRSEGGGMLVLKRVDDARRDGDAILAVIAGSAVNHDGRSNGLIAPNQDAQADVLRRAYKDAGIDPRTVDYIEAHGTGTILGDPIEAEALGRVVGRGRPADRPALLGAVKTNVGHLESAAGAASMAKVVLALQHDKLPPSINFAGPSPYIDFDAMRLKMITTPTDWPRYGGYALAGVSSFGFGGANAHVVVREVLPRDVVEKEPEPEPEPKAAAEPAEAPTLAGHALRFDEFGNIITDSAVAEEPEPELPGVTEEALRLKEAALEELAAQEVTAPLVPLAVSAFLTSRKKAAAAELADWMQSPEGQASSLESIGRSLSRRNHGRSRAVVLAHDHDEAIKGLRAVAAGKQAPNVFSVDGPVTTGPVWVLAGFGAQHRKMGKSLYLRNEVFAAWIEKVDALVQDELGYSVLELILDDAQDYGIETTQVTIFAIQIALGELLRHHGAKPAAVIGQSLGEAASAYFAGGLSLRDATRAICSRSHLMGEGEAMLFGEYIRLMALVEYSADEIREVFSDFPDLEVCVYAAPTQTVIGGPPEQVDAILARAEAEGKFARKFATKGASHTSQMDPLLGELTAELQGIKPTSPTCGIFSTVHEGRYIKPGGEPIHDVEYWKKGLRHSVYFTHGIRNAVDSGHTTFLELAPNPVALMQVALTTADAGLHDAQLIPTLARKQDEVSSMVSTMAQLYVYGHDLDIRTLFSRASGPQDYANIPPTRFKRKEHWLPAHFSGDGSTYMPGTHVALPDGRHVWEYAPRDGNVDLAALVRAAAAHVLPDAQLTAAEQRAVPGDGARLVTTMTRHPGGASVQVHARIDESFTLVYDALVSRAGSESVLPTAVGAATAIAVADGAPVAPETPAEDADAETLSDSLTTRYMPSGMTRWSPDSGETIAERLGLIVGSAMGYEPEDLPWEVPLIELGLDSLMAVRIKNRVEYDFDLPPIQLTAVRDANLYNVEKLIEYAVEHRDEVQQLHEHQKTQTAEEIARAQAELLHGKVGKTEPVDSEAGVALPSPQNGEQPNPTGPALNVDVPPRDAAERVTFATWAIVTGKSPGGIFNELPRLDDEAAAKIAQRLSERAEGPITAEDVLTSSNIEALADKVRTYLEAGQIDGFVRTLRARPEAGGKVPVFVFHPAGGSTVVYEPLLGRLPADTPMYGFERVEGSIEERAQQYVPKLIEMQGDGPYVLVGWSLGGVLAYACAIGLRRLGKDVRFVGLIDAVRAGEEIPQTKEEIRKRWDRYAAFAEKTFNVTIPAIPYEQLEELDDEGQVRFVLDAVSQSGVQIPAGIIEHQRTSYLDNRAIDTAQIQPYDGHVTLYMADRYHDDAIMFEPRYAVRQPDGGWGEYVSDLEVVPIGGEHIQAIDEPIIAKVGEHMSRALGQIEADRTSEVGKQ
UniProt P9WNZ1, whole entry: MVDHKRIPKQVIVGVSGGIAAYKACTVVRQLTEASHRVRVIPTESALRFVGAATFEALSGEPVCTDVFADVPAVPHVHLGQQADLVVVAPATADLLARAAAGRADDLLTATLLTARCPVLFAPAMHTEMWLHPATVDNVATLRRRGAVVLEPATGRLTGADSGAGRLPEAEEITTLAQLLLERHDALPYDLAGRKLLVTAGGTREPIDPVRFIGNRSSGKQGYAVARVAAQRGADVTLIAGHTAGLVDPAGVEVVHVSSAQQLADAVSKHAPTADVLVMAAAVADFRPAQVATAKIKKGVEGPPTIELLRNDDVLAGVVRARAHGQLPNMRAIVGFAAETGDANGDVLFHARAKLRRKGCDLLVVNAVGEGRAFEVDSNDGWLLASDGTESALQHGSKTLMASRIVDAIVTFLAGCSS
UniProt P9WPC5, whole entry: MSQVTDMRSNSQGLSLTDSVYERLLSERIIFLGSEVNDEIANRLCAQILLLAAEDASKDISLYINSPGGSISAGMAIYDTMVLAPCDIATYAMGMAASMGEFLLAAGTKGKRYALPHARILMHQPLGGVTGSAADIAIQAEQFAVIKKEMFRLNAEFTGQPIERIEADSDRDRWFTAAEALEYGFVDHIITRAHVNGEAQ
UniProt P9WPC3, whole entry partner: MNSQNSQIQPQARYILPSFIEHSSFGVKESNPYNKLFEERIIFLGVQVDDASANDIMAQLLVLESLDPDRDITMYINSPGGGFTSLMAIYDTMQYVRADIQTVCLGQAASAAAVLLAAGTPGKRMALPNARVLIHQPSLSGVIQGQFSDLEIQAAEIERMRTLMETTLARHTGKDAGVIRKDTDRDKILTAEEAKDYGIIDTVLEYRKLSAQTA
UniProt P9WFT3, whole entry: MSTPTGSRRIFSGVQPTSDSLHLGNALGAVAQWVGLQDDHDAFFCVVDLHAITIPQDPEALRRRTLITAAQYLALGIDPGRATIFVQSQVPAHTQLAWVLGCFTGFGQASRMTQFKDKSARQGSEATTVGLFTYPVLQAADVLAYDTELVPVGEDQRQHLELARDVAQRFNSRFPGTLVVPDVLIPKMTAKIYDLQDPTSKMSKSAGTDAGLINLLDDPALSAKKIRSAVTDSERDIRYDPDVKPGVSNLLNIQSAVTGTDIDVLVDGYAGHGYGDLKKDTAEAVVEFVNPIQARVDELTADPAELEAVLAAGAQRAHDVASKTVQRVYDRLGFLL

Source: ChEMBL document CHEMBL3988442, “University of Dundee, Small-Polar-MMV Screening Library” (2021).

Pks13 thioesterase: 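Polyketide synthase Pks13, Mycobacterium tuberculosis (UniProt I6X8D2). Enzyme assay of the thioesterase domain of polyketide synthase 13; the read-out is not stated. Compounds at 30 µM. The record gives no direction; the compounds picked for IC50 retests had high values, so higher reads as stronger inhibition. Of about 67,000 compounds tested this way, about 300 (0.46%) reached 50% or more in at least one test.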
Toxoplasma: 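Assay of Toxoplasma gondii numbers, read through their beta-galactosidase reporter with a colour substrate. Compounds at 10 µM. The record gives no direction; the compounds picked for IC50 retests had high values, so higher reads as fewer parasites. Size under these conditions: about 67,000 compounds, about 260 of them at 50% or above in at least one test.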
CoaBC: 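Coenzyme A biosynthesis protein CoaBC, Mycobacterium tuberculosis (UniProt P9WNZ1). Enzyme assay of CoaBC with a phosphate dye (Biomol Green) read at 650 nm. Tested at 30 µM. Higher reads as stronger inhibition, judged from the few compounds that gave an IC50. Most strong results did not repeat in a second test. Size under these conditions: about 67,000 compounds, about 40 of them at 50% or above in at least one test.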
ClpP1P2: 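ClpP1P2, Mycobacterium tuberculosis (UniProt P9WPC5 and UniProt P9WPC3). Protease assay of ClpP1P2, read by the AMC dye that it sets free. Tested at 50 µM. Higher reads as stronger inhibition, judged from the few compounds that gave an IC50. Most other retested compounds had strongly negative values. About 69,000 compounds were tested under these conditions; 0.015% (about 10) showed 50% or more at least once.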
Leishmania in macrophages: 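Cell assay of Leishmania donovani living inside macrophages; the read-out is not stated. Compounds at 30 µM. The record gives no direction; compounds that gave an IC50 in retests scored well above the rest, so higher reads as stronger inhibition. Of about 69,000 compounds tested this way, about 1,000 (1.5%) reached 50% or more in at least one test.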
MtTrpRS: 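Tryptophan-tRNA ligase, Mycobacterium tuberculosis (UniProt P9WFT3). Enzyme assay of tryptophanyl-tRNA synthetase; the read-out is not stated. Compounds at 10 µM. Higher most likely means stronger inhibition; the record gives no direction and few retests gave an IC50. About 65,000 compounds were tested under these conditions; 0.098% (about 64) showed 50% or more at least once.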

Values are the deposited “Percent Effect”, in %. The record does not define 0% and 100%; most values in the screen are far below 50% and negative numbers occur (in some assays of this library far below -100). Compounds were drawn at random from those tested, without regard to their results. Two or more numbers in one place are separate tests of the same structure; such repeats can differ widely.

Cc1nc(CCN)cc(N2CCC(O)(c3ccc(Cl)cc3)CC2)n1 read Pks13 thioesterase: -9.169%; Toxoplasma: 12.08%; ClpP1P2: -3.477%; Leishmania in macrophages: 77.75%; MtTrpRS: 9.99%. CCS(=O)(=O)NC[C@]12COC[C@H]1CN(CCc1ccccc1)C2 read Pks13 thioesterase: 3.532%; CoaBC: 2.648%; ClpP1P2: -9.063%; MtTrpRS: -2.525%. Cn1ccc(NCc2cc3cc(F)ccc3o2)n1 gave Pks13 thioesterase: 4.39%; Toxoplasma: -1.842%; CoaBC: -1.687%; ClpP1P2: -8.149%; Leishmania in macrophages: -1.485%; MtTrpRS: 4.984%. CC(C)N(C)C(=O)C1=NOC2(CCN(C(=O)c3ccnnc3)C2)C1 (stereo not drawn) read Pks13 thioesterase: -6.337%; Toxoplasma: 0.1818%; CoaBC: 5.331%; ClpP1P2: -5.363%; Leishmania in macrophages: -32.12%; MtTrpRS: 1.355%. For CO[C@@H]1CCN(Cc2nccs2)C[C@@H]1Cc1cccc(C)c1 the result was Pks13 thioesterase: -22.57%; CoaBC: -0.5076%; ClpP1P2: -12.8%; MtTrpRS: -6.996%.

For CCNS(=O)(=O)c1ccc2c(c1)c(=O)n(CC)c(=O)n2CC the result was Pks13 thioesterase: 18.02%; Toxoplasma: 16.98%; CoaBC: -2.651%; ClpP1P2: 12.53%; Leishmania in macrophages: 8.024%; MtTrpRS: -3.042%. COCC(=O)N1CCC(c2ccc(OC)cc2)C1 (stereo not drawn) read Pks13 thioesterase: -45.39%; Toxoplasma: -16.73%; CoaBC: 1.788%; ClpP1P2: -5.811%; Leishmania in macrophages: -47.86%; MtTrpRS: -1.854%. COCCN(Cc1cccs1)c1nc(CCN)nc2ccccc12 read Pks13 thioesterase: -13.33%; Toxoplasma: 7.913%; CoaBC: -6.446%; ClpP1P2: 0.5835%; Leishmania in macrophages: 70.83%; MtTrpRS: -2.349%. For CN1CCc2ccc(NCc3cccs3)cc2C1=O the result was Pks13 thioesterase: 125.8%; Toxoplasma: 9.524%; CoaBC: 3.194%; ClpP1P2: -36.26%; Leishmania in macrophages: 30.95%; MtTrpRS: -5.004%. For CCN(CC)CCCNC(=O)Nc1c(C)cccc1C(C)C the result was Pks13 thioesterase: -6.585%; Toxoplasma: 13.81%; CoaBC: 5.951%; ClpP1P2: 11.61%; Leishmania in macrophages: 5.1%; MtTrpRS: 0.9266%.

O=C1COC2(CCN(C(=O)c3ccco3)CC2)CN1Cc1cccnc1 gave Pks13 thioesterase: -8.237%; CoaBC: 1.693%; ClpP1P2: 12.84%; MtTrpRS: -2.519%. Result for Cc1cccc(CS(=O)(=O)NCc2nn(C)c3c2COCC3)c1 was Pks13 thioesterase: -21.25%; Toxoplasma: 0.8225%; CoaBC: 7.732% & 31.99%; ClpP1P2: 1.282%; Leishmania in macrophages: -21.34%; MtTrpRS: 1.75%. With N#Cc1ccc(N2CCC3(CC2)CC(OCc2cccnc2)CO3)cc1 (stereo not drawn) the screen gave Pks13 thioesterase: -5.876%; CoaBC: -31.92%; ClpP1P2: -4.935%; MtTrpRS: -0.4933%. For O=S(=O)(CCCN1CCc2c(ncn2C2CC2)C1)c1ccccc1 the result was Toxoplasma: 14.12%; CoaBC: 1.722%; ClpP1P2: 1.993%; Leishmania in macrophages: -62.65%; MtTrpRS: -2.007%. Result for COc1ccc(CNC(=O)CCN2CCOC(C(F)(F)F)C2)cc1 (stereo not drawn) was Pks13 thioesterase: -27.41%; Toxoplasma: -8.671%; CoaBC: 2.564%; ClpP1P2: -12.25%; Leishmania in macrophages: -0.3865%; MtTrpRS: -3.069%.

CO[C@@H]1CC[C@H]2[C@H]1OCCN2Cc1ccc(F)c(F)c1 read Pks13 thioesterase: -9.422%; CoaBC: -16.4%; ClpP1P2: -15.92%; MtTrpRS: -4.876%. For NC(=O)Cn1cc(NC(=O)N2CCCC2)cn1 the result was Pks13 thioesterase: 0.8411%; Toxoplasma: -26.24%; CoaBC: 6.477%; ClpP1P2: 4.822%; Leishmania in macrophages: 7.886%; MtTrpRS: 0.5197%. Cc1n[nH]c(C2CN(Cc3ncc(C(C)C)o3)CCO2)n1 (stereo not drawn) gave Pks13 thioesterase: 15.44%; Toxoplasma: 4.076%; CoaBC: -4.412%; ClpP1P2: -3.516%; Leishmania in macrophages: 19.03%; MtTrpRS: 3.21%. Result for Cc1cc(CN2CCCC(NS(C)(=O)=O)C2)ccc1-n1cncn1 (stereo not drawn) was Pks13 thioesterase: -29.41%; Toxoplasma: -0.3846%; CoaBC: -2.784%; ClpP1P2: 5.258%; Leishmania in macrophages: 20.99%; MtTrpRS: -0.8227%. Cc1nc2c(c(NCC(=O)NC(C)C)n1)Cc1ccccc1OC2 read Pks13 thioesterase: -3.8%; Toxoplasma: -13.67%; CoaBC: 4.642%; ClpP1P2: -8.72%; Leishmania in macrophages: -73.5%; MtTrpRS: 3.06%.

For Cc1ccccc1CS(=O)(=O)CC(=O)N(C)Cc1ccccc1F the result was Pks13 thioesterase: 6.282%; Toxoplasma: 1.824%; CoaBC: -4.668%; ClpP1P2: -5.894%; Leishmania in macrophages: 1.962%; MtTrpRS: 2.016%. COc1ccc(CN2CC(O)CN(C(=O)CC(C)C)CC2=O)cc1 (stereo not drawn) read Pks13 thioesterase: -11.88%; Toxoplasma: 3.981%; CoaBC: 2.663%; ClpP1P2: 15.86%; Leishmania in macrophages: -20.51%. Result for Cn1cc(-c2cnc(N3CCOCC3)nc2)cc1C(=O)O was Pks13 thioesterase: -0.881%; Toxoplasma: 0.6331%; CoaBC: 12.22%; ClpP1P2: 0.8127%; Leishmania in macrophages: -14.95%; MtTrpRS: -21.95%. For O=C1CCSCC(C(=O)N2CCN(C3CCCCC3)CC2)N1 (stereo not drawn) the result was Pks13 thioesterase: -8.008%; Toxoplasma: -2.408%; CoaBC: 0.2132%; ClpP1P2: -3.952%; Leishmania in macrophages: 37.52%; MtTrpRS: 0.9266%.